Chains of the proteins cited; added tags and fusions are not shown. Lines headed by an entry give the natural chain unless they say otherwise; changes in a name come on top.
UniProt Q8IS82: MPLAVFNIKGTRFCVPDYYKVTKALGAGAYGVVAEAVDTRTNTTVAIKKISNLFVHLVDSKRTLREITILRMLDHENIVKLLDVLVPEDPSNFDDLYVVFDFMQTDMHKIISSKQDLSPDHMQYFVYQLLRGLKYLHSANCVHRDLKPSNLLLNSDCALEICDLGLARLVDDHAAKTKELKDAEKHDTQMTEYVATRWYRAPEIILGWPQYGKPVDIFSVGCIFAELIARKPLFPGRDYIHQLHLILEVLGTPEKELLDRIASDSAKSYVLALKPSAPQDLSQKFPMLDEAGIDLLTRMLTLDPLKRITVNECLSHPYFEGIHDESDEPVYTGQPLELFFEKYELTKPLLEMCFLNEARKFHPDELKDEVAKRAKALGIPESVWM
UniProt A8BSN3: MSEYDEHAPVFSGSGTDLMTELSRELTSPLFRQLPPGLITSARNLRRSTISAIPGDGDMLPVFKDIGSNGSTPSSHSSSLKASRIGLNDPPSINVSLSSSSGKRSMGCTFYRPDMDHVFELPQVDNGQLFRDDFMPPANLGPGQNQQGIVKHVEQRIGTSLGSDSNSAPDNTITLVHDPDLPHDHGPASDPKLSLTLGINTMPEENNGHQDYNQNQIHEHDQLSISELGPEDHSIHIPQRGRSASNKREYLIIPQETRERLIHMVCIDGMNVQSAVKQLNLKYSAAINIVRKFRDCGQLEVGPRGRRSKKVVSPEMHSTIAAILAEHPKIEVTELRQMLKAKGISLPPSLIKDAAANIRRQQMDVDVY
UniProt A8B733: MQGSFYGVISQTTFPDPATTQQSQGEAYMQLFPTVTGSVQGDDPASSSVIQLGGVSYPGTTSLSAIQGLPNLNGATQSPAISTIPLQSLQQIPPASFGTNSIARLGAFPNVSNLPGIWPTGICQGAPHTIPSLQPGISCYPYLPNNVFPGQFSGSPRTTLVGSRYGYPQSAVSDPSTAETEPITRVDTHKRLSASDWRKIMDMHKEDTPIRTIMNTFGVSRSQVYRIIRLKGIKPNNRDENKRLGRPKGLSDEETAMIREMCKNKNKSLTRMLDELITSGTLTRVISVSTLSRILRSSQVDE

In PMC3280250, “Functional Redundancy of Two Pax-Like Proteins in Transcriptional Activation of Cyst Wall Protein Genes in Giardia lamblia”:

Biological target: HA-tagged ERK1 (extracellular signal-related kinase 1) of Giardia lamblia (Giardia lamblia) (UniProt Q8IS82)
Assay: co-IP; lysates (luciferase lysis buffer, glass beads) of 5'Δ5N-Pac, pPERK1 and pPERK1m stable transfectants after 24 h in encystation medium; anti-HA antibody conjugated to beads; beads washed three times; Western blot with anti-HA, anti-Pax2 and anti-Pax1

| binding | Substance |
| --- | --- |
| binds | Giardia lamblia Pax1 protein (from UniProt A8BSN3) |
| binds | Giardia lamblia Pax2 protein (from UniProt A8B733) |

No constants are given. Whether binding was seen depends on the method and setting. In cells and extracts the contact can be indirect. Binding can be weak; no strength is given.
